These are yes or no findings as the source states them, for the method shown. Binding seen in cells or lysates may run through a third protein. Some binding calls cover weakened binding; strength is not graded here. Where a sequence is shown, tags or fusion partners need not be part of it.
Molecular target: T1, HA-tagged Mst1 (mammalian sterile-like kinase-1), full length (UniProt Q13043)
T1 sequence: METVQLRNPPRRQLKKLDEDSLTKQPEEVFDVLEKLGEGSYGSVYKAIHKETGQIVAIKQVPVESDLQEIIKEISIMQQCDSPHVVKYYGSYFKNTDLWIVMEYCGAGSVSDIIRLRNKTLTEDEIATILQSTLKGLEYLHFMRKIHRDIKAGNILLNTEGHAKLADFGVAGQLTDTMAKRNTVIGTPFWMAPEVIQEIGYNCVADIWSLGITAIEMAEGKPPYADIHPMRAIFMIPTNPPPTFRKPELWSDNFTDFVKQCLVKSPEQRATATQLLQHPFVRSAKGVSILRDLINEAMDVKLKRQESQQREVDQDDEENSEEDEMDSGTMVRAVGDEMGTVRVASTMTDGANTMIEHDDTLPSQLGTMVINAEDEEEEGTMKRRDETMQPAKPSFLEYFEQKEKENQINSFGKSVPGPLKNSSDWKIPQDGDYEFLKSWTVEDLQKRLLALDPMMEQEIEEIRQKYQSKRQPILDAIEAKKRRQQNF
Assay: co-IP; HEK293TN cells co-transfected with GFP-HAX1 (full length or truncates) and full-length HA-Mst1; lysate precipitated with HA antibody and protein A/G-agarose, overnight at 4 °C, washed with RIPA lysis buffer; blot for GFP

Chains of the proteins cited; added tags and fusions are not shown. Lines headed by an entry give the natural chain unless they say otherwise; changes in a name come on top.
UniProt O00165: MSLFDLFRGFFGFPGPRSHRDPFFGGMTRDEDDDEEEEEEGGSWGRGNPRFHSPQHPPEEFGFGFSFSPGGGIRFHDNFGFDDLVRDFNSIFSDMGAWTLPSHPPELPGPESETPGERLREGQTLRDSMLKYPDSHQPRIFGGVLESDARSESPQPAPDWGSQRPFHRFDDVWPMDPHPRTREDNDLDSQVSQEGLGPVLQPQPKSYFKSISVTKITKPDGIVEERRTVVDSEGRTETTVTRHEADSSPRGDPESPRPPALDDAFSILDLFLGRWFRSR

Substance | binding
GFP-tagged HAX1 (HCLS1-associated protein X-1), full length (from UniProt O00165 1-279) | binds
GFP-tagged HAX1 truncate (1–45) (from UniProt O00165 1-45) (domain or fragment) | no binding
GFP-tagged HAX1 truncate (1–100) (from UniProt O00165 1-100) (domain or fragment) | no binding

Reference: PMC11319392
